Assay [1] addresses Insulin-like growth factor 2 mRNA-binding protein 2 (IGF2BP2), endogenous (human (endogenous in HEK293T, U87 and U251)) (UniProt Q9Y6M1). Description: co-IP; lysates of HEK293T cells stably transfected with sh-NC, SENP1 knockdown or Ubc9 knockdown; IP with anti-SUMO1, anti-IGF2BP2 or normal IgG; western blot with anti-IGF2BP2 and anti-SUMO1.
Assay [2] has the same target. Description: co-IP; lysates of U87 and U251 glioma cells; IP with anti-SUMO1, anti-IGF2BP2 or anti-IgG; western blot with anti-IGF2BP2 and anti-SUMO1.

The chains behind the UniProt entries cited, without tags or fusion partners. Residues count along the entry.
UniProt Q9Y6M1: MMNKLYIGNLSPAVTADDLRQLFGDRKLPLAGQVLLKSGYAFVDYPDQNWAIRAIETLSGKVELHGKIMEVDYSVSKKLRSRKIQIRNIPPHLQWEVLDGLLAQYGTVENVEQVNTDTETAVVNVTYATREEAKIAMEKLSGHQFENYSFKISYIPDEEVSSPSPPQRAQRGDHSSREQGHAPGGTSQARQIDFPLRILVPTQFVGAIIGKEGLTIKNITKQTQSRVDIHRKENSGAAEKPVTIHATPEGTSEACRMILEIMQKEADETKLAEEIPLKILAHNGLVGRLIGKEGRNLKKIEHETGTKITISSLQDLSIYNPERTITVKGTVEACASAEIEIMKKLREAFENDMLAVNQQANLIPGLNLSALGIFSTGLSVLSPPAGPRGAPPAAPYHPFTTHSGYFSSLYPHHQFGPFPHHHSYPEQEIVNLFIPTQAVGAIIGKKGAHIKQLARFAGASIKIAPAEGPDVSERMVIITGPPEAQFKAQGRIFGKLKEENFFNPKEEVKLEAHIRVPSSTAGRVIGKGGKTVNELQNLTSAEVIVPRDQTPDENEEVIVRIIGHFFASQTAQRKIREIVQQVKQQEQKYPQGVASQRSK
UniProt P63165, residues 1-97: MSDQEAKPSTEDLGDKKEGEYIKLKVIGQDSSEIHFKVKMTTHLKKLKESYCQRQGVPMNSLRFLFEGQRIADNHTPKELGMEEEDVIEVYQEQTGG

These are yes or no findings as the source states them, for the method shown. In cells and extracts the contact can be indirect. Some entries that bind do so weakly or less than the wild type.

Regarding “SUMO1 (small molecule ubiquitin-like modifier 1), endogenous (from UniProt P63165 1-97)”, the binding entry in assay [1] and in assay [2] was “binds” throughout.

(Values after publication PMC8326132.)
